The text below walks through data of paper PMC4882005.

Sequences of proteins named here, by UniProt entry; tags and fusion partners are left off. A change or cut given only in a name is not applied to a line headed by its entry.
UniProt Q9H172: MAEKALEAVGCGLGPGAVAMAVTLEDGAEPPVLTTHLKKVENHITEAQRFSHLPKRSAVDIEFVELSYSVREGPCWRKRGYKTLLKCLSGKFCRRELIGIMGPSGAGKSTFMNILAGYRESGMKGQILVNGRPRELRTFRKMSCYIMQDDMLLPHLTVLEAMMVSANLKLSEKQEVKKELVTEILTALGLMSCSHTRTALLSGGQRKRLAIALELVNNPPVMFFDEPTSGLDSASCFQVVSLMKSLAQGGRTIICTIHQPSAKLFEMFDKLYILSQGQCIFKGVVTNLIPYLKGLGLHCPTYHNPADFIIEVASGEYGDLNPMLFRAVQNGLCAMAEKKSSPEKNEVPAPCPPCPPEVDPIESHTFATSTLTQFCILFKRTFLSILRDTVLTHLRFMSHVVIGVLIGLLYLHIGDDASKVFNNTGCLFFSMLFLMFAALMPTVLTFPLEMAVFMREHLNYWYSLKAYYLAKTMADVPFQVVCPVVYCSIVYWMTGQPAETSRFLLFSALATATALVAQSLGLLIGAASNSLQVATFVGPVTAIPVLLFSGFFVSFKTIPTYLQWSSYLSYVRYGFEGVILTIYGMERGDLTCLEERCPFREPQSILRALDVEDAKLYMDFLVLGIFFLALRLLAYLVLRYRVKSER

The target in this experiment is GFP-ABCG4 (UniProt Q9H172). Kind of experiment: co-IP; HEK293 co-transfected with the GFP-tagged and the untagged protein (untagged in excess), lysed 24 h after transfection in 50 mM Tris pH 7.4, 150 mM NaCl, 0.5% NP-40; precipitated with anti-GFP on protein G-sepharose, 2 h at 4°C; Western blot of the precipitate. A general note: Immunoblotting shows a protein as a band on a membrane.

Results are given in words; binding and its absence hold for the method and conditions named. Binding seen in cells or lysates may run through a third protein. Some binding calls cover weakened binding; strength is not graded here.

On to “ABCG4 (wild type, untagged) (from UniProt Q9H172-1 1-646)”, for which the binding entry is given as “binds”.
